Assay results reported in PMC5590128.
Results are given in words; binding and its absence hold for the method and conditions named. Binding seen in cells or lysates may run through a third protein. Some binding calls cover weakened binding; strength is not graded here.

Chains of the proteins cited; added tags and fusions are not shown.
UniProt P49792: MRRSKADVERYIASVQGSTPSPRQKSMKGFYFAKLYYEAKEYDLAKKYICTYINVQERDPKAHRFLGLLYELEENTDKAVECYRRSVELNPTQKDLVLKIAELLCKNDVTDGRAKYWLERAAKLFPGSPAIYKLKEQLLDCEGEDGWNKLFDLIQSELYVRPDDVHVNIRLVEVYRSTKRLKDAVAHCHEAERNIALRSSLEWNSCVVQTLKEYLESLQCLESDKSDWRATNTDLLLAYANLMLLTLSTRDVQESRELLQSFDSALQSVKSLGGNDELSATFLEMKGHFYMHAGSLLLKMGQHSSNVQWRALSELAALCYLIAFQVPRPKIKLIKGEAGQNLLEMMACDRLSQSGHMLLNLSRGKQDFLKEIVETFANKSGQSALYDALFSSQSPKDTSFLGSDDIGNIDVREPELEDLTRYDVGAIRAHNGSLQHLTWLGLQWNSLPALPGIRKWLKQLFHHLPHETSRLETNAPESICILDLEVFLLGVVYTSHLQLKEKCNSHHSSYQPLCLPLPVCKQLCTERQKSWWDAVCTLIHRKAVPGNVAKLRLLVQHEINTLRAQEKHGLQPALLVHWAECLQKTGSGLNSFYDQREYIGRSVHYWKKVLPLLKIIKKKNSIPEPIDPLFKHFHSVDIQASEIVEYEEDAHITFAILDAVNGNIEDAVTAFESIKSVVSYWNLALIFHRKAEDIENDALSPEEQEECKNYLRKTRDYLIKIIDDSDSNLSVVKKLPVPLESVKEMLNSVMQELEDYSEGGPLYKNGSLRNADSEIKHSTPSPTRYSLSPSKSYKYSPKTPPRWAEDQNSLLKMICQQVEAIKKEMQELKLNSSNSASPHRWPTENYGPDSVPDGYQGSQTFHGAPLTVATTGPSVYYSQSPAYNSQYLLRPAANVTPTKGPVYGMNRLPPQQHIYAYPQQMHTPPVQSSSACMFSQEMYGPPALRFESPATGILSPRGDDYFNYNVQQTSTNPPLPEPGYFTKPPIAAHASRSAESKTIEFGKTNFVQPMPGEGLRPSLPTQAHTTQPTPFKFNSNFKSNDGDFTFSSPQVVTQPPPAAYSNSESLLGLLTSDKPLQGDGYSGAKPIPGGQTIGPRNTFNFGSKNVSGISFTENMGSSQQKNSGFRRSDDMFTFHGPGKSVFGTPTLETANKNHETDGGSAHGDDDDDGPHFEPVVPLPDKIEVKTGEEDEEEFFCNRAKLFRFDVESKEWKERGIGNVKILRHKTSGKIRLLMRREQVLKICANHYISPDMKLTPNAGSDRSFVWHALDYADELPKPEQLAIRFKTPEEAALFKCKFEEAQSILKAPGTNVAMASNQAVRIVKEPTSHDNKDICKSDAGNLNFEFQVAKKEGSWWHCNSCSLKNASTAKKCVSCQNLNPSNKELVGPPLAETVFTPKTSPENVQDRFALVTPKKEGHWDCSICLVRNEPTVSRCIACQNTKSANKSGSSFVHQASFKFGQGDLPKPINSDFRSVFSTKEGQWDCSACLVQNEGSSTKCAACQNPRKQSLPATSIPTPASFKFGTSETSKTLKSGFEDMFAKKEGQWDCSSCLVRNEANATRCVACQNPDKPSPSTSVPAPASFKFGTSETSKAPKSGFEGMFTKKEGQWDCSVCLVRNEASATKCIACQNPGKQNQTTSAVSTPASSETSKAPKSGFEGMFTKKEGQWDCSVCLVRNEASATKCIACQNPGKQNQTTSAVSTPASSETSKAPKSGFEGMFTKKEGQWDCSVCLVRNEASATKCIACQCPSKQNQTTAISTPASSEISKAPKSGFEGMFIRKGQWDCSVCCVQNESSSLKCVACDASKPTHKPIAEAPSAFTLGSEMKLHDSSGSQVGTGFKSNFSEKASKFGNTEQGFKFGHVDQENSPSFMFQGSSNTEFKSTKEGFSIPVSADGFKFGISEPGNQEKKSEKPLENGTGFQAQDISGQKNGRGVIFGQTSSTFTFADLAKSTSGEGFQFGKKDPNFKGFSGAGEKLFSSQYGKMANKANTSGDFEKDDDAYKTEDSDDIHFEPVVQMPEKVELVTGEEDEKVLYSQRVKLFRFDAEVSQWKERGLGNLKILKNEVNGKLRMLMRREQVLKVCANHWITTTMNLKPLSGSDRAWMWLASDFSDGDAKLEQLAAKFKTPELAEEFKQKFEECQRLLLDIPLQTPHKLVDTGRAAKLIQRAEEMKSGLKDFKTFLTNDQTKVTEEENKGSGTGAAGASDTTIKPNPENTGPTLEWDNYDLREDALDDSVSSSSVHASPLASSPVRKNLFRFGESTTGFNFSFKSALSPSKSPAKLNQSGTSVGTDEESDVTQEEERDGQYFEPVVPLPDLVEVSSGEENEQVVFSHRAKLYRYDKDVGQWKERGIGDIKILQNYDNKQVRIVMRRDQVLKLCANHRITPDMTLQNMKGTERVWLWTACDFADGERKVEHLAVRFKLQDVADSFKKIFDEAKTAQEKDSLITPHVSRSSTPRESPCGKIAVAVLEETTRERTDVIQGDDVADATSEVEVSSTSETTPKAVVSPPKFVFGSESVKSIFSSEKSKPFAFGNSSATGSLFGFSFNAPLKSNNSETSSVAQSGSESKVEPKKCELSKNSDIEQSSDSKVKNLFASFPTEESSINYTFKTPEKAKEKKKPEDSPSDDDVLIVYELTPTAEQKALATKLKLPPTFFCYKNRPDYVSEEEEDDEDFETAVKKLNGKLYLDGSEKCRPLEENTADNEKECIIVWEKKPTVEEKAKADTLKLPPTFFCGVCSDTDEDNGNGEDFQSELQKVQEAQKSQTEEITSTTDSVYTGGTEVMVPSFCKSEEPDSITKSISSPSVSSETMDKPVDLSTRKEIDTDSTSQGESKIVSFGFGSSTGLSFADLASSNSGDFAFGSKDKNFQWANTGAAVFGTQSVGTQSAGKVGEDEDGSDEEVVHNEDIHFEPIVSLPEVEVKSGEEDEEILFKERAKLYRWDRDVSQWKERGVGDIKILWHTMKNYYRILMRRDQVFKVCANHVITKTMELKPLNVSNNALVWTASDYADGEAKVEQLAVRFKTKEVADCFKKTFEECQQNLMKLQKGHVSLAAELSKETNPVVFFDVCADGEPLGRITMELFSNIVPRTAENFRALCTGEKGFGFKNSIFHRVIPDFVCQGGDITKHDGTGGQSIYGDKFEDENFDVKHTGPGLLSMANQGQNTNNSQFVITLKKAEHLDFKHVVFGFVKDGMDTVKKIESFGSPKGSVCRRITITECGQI
UniProt P46527: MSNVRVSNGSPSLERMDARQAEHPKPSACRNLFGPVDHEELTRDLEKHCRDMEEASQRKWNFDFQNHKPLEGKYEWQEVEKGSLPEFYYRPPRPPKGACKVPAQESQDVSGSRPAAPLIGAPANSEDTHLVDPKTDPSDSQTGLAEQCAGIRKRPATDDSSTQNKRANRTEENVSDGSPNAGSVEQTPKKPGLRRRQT

Experiments:
GST-RanBP2 = GST-RanBP2 (UniProt P49792); experiment: pull-down; GST-pull down with GST-RanBP2 and His-p27kip1, as mentioned by Sambrook (ref. 25); no further conditions given
flag-p27kip1-wt = flag-p27kip1-wt (UniProt P46527); experiment: co-IP; QBC939 cells transfected with flag-p27kip1 and HA-RanBP2; lysed in NETN buffer; anti-HA or anti-flag antibody and Protein G Agarose overnight at 4 °C; four washes with NETN; western blotting
HA-RanBP2 = HA-RanBP2 (UniProt P49792); experiment: as above

Substance: His-p27kip1 (from UniProt P46527 1-198)
- binding (GST-RanBP2): binds

Substance: HA-RanBP2 (from UniProt P49792 1-3224)
- binding (flag-p27kip1-wt): binds

Substance: flag-p27kip1-wt (from UniProt P46527 1-198)
- binding (HA-RanBP2): binds
